# Data taken from paper PMC4476799, “Englerin A Agonizes the TRPC4/C5 Cation Channels to Inhibit Tumor Cell Line Proliferation” (PLoS ONE, 2015).
# Further values from the same series stand in other lists.
# Test system: cancer cell lines from the cancer cell line encyclopedia (CCLE)
# Assay: Cell line profiling (CLiP) proliferation experiment
# Type: cell-based
# Parameters: ACTIVITY_AREA: scale not given here; AMAX: unit not given here
# Description: Compound profiling experiment and data analysis was performed as previously described. Data was imported and plotted using the Tibco Spotfire DXP application. Lines were categorized as sensitive, intermediate and refractory as follows: Amax<-40 & Inflection Point <2 ~ Sensitive, Amax>-20 & Inflection Point >10 ~ Refractory, all else were called Intermediate. Cancer Cell line HG-U133 Plus 2 data was processed and normalized as described. […] Five sets of refractory cell lines were generated from the pool of refractory cell lines trying to match the lineage composition of the set of sensitive cell lines. The limma package was used as previously described to perform the statistical comparison.
# [1] = cell line PE/CA-PJ41 (clone D2)
# [2] = cell line RS4;11, haematopoietic_and_lymphoid_tissue, acute_lymphoblastic_B_cell_leukaemia
# [3] = cell line RT-112, urinary_tract, transitional_cell_carcinoma
smiles,measurement,setting,value
CC(C)[C@@]12C[C@@H](O)[C@@](C)(O1)[C@@H]1CC[C@@H](C)[C@H]1[C@@H]2OC(=O)/C=C/c1ccccc1 [Englerin B],ACTIVITY_AREA,cell line PC-3,27.62
same,AMAX,cell line PC-3,-56.65
same,RESPONSE,cell line PC-3,INTERMEDIATE
same,ACTIVITY_AREA,cell line PC-14,53.2
same,AMAX,cell line PC-14,-60.86
same,RESPONSE,cell line PC-14,INTERMEDIATE
same,ACTIVITY_AREA,[1],24.88
same,AMAX,[1],-57.93
same,RESPONSE,[1],INTERMEDIATE
same,ACTIVITY_AREA,cell line PEER,70.62
same,AMAX,cell line PEER,-84.18
same,RESPONSE,cell line PEER,INTERMEDIATE
same,ACTIVITY_AREA,cell line PF-382,21.49
same,AMAX,cell line PF-382,-65.49
same,RESPONSE,cell line PF-382,INTERMEDIATE
same,ACTIVITY_AREA,cell line PL-21,24.72
same,AMAX,cell line PL-21,-72.2
same,RESPONSE,cell line PL-21,INTERMEDIATE
same,ACTIVITY_AREA,cell line PLC/PRF/5,81.8
same,AMAX,cell line PLC/PRF/5,-62.62
same,RESPONSE,cell line PLC/PRF/5,INTERMEDIATE
same,ACTIVITY_AREA,cell line PSN1,48.4
same,AMAX,cell line PSN1,-50.26
same,RESPONSE,cell line PSN1,INTERMEDIATE
same,ACTIVITY_AREA,cell line Panc 02.03,33.74
same,AMAX,cell line Panc 02.03,-6.12
same,RESPONSE,cell line Panc 02.03,REFRACTORY
same,ACTIVITY_AREA,cell line Panc 03.27,32.48
same,AMAX,cell line Panc 03.27,-68.65
same,RESPONSE,cell line Panc 03.27,INTERMEDIATE
same,ACTIVITY_AREA,cell line Panc 04.03,25.22
same,AMAX,cell line Panc 04.03,-42.01
same,RESPONSE,cell line Panc 04.03,INTERMEDIATE
same,ACTIVITY_AREA,cell line Panc 10.05,44.86
same,AMAX,cell line Panc 10.05,-68.86
same,RESPONSE,cell line Panc 10.05,INTERMEDIATE
same,ACTIVITY_AREA,cell line RCC10RGB,23.96
same,AMAX,cell line RCC10RGB,-33.3
same,RESPONSE,cell line RCC10RGB,INTERMEDIATE
same,ACTIVITY_AREA,cell line RCH-ACV,21.26
same,AMAX,cell line RCH-ACV,-65
same,RESPONSE,cell line RCH-ACV,INTERMEDIATE
same,ACTIVITY_AREA,cell line RD,44.05
same,AMAX,cell line RD,-26.78
same,RESPONSE,cell line RD,INTERMEDIATE
same,ACTIVITY_AREA,cell line REC-1,20.74
same,AMAX,cell line REC-1,-85.12
same,RESPONSE,cell line REC-1,INTERMEDIATE
same,ACTIVITY_AREA,cell line RERF-LC-AI,24.39
same,AMAX,cell line RERF-LC-AI,-47.09
same,RESPONSE,cell line RERF-LC-AI,INTERMEDIATE
same,ACTIVITY_AREA,cell line RH-18,79.38
same,AMAX,cell line RH-18,-16.44
same,RESPONSE,cell line RH-18,REFRACTORY
same,ACTIVITY_AREA,cell line RH-41,42.17
same,AMAX,cell line RH-41,-95.73
same,RESPONSE,cell line RH-41,INTERMEDIATE
same,ACTIVITY_AREA,cell line RI-1,98.96
same,AMAX,cell line RI-1,-92.55
same,RESPONSE,cell line RI-1,INTERMEDIATE
same,ACTIVITY_AREA,cell line RKN,25.89
same,AMAX,cell line RKN,-49.43
same,RESPONSE,cell line RKN,INTERMEDIATE
same,ACTIVITY_AREA,cell line RKO,25.58
same,AMAX,cell line RKO,-79.57
same,RESPONSE,cell line RKO,INTERMEDIATE
same,ACTIVITY_AREA,cell line RL,38.44
same,AMAX,cell line RL,-90.86
same,RESPONSE,cell line RL,INTERMEDIATE
same,ACTIVITY_AREA,cell line RMUG-S,7.3
same,AMAX,cell line RMUG-S,2.82
same,RESPONSE,cell line RMUG-S,REFRACTORY
same,ACTIVITY_AREA,cell line RPMI 8226,43
same,AMAX,cell line RPMI 8226,-80.8
same,RESPONSE,cell line RPMI 8226,INTERMEDIATE
same,ACTIVITY_AREA,cell line RPMI-7951,38.85
same,AMAX,cell line RPMI-7951,-60.36
same,RESPONSE,cell line RPMI-7951,INTERMEDIATE
same,ACTIVITY_AREA,cell line RPMI-8402,70.19
same,AMAX,cell line RPMI-8402,-61.1
same,RESPONSE,cell line RPMI-8402,INTERMEDIATE
same,ACTIVITY_AREA,[2],34.25
same,AMAX,[2],-73.99
same,RESPONSE,[2],INTERMEDIATE
same,ACTIVITY_AREA,[3],66.59
same,AMAX,[3],-78.07
